Laboratory results as given in publication doi:10.1101/2023.10.14.562322.
Where a chain is given by its changes, count along the chain named. These are yes or no findings as the source states them, for the method shown. Binding seen in cells or lysates may run through a third protein. Some binding calls cover weakened binding; strength is not graded here. Sequences can lack the tags named with a protein. One block for each molecule: values may come before it.

By UniProt entry, the sequences of proteins in these tests, tags left out. Where a name states a change or a piece, a line headed by the entry shows the natural chain unless it says otherwise.
UniProt Q9Y262, whole entry: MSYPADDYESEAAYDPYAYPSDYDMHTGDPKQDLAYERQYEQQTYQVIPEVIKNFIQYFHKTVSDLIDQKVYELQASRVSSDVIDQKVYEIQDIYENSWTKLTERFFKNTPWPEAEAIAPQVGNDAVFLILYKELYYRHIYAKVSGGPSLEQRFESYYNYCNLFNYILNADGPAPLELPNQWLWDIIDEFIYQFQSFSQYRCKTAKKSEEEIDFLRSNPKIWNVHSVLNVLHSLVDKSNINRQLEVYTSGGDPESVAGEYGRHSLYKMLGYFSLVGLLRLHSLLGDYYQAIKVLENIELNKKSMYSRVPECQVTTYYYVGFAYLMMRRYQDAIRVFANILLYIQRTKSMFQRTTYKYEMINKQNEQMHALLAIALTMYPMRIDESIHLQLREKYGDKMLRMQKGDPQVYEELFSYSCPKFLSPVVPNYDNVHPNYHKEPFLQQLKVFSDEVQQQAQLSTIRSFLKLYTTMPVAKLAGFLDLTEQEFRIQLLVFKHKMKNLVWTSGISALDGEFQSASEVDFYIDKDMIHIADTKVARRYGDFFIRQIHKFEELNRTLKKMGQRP
UniProt O15371, whole entry: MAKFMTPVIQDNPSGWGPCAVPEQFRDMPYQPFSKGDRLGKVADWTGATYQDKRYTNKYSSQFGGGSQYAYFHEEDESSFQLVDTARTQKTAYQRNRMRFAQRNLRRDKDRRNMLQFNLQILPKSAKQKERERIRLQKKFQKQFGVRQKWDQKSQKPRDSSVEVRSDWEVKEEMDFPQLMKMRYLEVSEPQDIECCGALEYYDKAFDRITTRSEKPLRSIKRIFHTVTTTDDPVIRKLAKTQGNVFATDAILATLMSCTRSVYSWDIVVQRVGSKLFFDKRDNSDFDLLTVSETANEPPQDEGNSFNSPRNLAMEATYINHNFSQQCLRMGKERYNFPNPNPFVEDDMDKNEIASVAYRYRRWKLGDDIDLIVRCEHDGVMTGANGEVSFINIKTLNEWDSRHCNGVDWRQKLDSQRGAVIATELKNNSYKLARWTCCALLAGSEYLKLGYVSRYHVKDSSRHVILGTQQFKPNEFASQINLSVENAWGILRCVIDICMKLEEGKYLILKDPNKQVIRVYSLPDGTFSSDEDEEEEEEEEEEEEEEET
UniProt O75821, whole entry: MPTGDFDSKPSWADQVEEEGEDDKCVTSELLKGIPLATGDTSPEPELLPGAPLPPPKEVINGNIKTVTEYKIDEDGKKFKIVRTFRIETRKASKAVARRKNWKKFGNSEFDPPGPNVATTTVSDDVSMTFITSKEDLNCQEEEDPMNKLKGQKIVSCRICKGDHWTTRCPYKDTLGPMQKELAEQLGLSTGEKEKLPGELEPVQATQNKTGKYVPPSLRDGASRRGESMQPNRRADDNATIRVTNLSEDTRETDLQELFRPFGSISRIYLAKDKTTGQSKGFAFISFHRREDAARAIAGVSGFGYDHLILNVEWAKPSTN
UniProt O60573, whole entry: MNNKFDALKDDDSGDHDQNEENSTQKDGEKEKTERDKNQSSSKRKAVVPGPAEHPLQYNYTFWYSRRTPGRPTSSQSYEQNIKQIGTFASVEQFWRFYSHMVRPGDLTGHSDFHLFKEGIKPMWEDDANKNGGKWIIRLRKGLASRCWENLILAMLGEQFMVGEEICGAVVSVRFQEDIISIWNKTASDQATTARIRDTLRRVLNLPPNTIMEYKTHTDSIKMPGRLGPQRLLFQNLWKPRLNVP

What was measured:
[1] = target: T1, v5-GIGYF1 (full-length human GIGYF1) (human) (UniProt O75420); test: co-IP
T1 sequence: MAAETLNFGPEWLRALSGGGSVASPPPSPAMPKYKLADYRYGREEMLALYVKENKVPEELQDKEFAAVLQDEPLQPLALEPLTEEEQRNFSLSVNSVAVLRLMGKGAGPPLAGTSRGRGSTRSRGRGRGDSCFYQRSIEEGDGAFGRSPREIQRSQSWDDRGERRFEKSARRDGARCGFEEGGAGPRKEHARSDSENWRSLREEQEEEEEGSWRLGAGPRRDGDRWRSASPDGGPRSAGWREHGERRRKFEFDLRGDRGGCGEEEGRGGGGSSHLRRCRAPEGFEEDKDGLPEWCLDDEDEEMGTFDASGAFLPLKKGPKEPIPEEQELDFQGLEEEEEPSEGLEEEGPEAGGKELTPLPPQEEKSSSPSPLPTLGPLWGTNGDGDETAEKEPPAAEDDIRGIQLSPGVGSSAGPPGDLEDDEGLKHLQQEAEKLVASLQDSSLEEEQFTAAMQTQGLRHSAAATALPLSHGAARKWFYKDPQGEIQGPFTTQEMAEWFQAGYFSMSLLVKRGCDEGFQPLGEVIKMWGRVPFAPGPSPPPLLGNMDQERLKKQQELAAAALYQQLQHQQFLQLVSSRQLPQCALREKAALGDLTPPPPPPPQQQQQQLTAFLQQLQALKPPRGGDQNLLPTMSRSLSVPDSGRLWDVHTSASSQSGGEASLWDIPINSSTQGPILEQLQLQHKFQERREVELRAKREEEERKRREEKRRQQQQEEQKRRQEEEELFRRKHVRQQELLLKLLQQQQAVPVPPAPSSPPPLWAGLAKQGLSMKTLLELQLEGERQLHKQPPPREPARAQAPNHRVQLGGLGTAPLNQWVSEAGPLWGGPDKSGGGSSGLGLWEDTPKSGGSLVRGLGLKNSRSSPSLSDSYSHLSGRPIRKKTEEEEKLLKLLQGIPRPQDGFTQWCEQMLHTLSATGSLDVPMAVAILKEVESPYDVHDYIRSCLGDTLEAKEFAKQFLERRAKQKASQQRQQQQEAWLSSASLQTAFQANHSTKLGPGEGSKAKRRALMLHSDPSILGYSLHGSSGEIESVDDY

[2] = target: T2, v5-GIGYF1-Mut (4EHP-binding mutant GIGYF1; Y39A, Y41A, M46A, L47A) (human) (UniProt O75420); test: co-IP
T2 sequence: T1 sequence with Y39A, Y41A, M46A, L47A

FLAG-eIF3L [3] = target: FLAG-eIF3L (UniProt Q9Y262); test: co-IP
FLAG-eIF3D = FLAG-eIF3D (UniProt O15371); test: proximity ligation
FLAG-eIF3G = FLAG-eIF3G (UniProt O75821); test: proximity ligation
FLAG-eIF3L [4] = target: FLAG-eIF3L (UniProt Q9Y262); test: proximity ligation

binding [1]: binds | binding [2]: no binding
Molecule: HA-4EHP (from UniProt O60573 1-245)

binding (FLAG-eIF3L [3]): binds | binding (FLAG-eIF3D): binds | binding (FLAG-eIF3G): binds | binding (FLAG-eIF3L [4]): binds
B1: v5-GIGYF1 (full-length human GIGYF1) (protein, UniProt O75420 1-1035)
chain: T1 sequence
